No constants are given. Whether binding was seen depends on the method and setting. A result given as binding can be weak or reduced; the word gives no strength.
Molecular target: N-terminally His6-tagged human IDO1 (indoleamine 2,3-dioxygenase 1), purified apo-IDO1 (human) (UniProt P14902)
Assay: fluorescence polarisation; Alexa Fluor 488-labelled IDO1 at 100 nM titrated with GAPDH; room temperature; 40 mM EPPS, 150 mM NaCl, 10% glycerol, pH 7.6; both purified

The chains behind the UniProt entries cited, without tags or fusion partners. Where a name states a change or a piece, a line headed by the entry shows the natural chain unless it says otherwise.
UniProt P14902: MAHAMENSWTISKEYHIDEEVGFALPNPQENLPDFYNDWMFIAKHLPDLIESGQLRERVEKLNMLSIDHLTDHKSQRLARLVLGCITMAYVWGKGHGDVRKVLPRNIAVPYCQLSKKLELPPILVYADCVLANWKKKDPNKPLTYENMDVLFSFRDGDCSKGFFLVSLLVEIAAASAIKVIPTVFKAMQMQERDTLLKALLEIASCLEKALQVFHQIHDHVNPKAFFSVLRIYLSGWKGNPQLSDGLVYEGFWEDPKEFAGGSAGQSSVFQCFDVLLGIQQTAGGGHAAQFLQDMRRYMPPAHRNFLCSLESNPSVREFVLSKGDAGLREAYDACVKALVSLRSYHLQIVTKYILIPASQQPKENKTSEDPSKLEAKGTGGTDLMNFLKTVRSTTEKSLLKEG
UniProt P04406: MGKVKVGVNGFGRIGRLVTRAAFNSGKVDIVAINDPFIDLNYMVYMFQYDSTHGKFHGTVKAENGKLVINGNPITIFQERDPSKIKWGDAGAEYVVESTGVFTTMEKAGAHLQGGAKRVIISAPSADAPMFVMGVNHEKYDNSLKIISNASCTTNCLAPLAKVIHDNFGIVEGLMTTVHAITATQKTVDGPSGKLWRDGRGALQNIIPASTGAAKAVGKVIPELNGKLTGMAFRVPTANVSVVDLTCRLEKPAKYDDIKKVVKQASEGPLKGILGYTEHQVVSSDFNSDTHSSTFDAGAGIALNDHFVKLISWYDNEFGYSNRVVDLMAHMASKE

binding: binds
Substance: TC-GAPDH E138R, purified (from UniProt P04406) (enzyme)
